Patent US20060199228A1 (KING S COLLEGE LONDON, published 2006)
Results are given in words; binding and its absence hold for the method and conditions named. A result given as binding can be weak or reduced; the word gives no strength.

B1: preproinsulin peptide C19-A3 (peptide)
peptide: GSLQPLALEGSLQKRGIV
notes: Synthetic peptide; also called PI C19-A3; Proinsulin C19-A3

biological target: HLA-DR4 immunoaffinity-purified from Priess EBV-transformed B cells (DRB1*0401); test: acid elution from HLA-DR4 of preproinsulin-pulsed Priess cells, MALDI-TOF MS

Binder	binding
B1	binds
QPLALEGSLQKRGIVEQ (Synthetic peptide) [preproinsulin peptide C22-A5]	binds
DLQVGQVELGGGPGAGSLQPLALE [preproinsulin peptide C4-C27]	binds
GGGPGAGSLQPLALEGSLQK (Synthetic peptide; also called C13-32) [preproinsulin peptide C13-C32]	binds

biological target: HLA-DR4 immunoaffinity-purified from Priess EBV-transformed B cells (DRB1*0401); test: competition binding assay, DELFIA

Binder	binding
B1	binds
QPLALEGSLQKRGIVEQ (Synthetic peptide) [preproinsulin peptide C22-A5]	binds
GGGPGAGSLQPLALEGSLQK (Synthetic peptide; also called C13-32) [preproinsulin peptide C13-C32]	binds
